Source: PubChem BioAssay AID540256 (National Center for Advancing Translational Sciences (NCATS), 2011)
Hit rate of the full screen: of about 300,000 compounds, about 3,700 (1.2%) were called active. Inconclusive means that the source gave no clear call. Such entries were picked first, then a sample of the others. Calls come from the whole dose curve; tested in HEK293 cells. A potency beside an inconclusive call is a rough fit, not a confirmed value.

Test: qHTS for Inhibitors of binding or entry into cells for Lassa Virus; note: nearly all actives have a fitted effect of over 50% in size
Conditions: Lassa virus pseudotype entry inhibition, cell reporter; series mostly up to 37.9 µM
Potency is the fitted concentration of half-maximal effect.

Compound | Potency
CCN1CCN(CCCN(Cc2ccco2)C(=S)Nc2ccc(Cl)c(C)c2)CC1 | inconclusive: 35.5 µM [inhibitor, single point]
COc1ccccc1C(=O)N/N=C(\C)CC(=O)Nc1ccccn1 | inactive
Cc1ccc(C(=O)NCCc2nnc3ccc(SCC(=O)N4CCCC4)nn23)cc1 | inconclusive: 3.98 µM [activator, full curve, poor fit]
CCOC(=O)CCc1c(C)nc2cc(-c3cc(OC)cc(OC)c3)[nH]n2c1=O | inactive
Cc1ccc(NC(=O)CCN2CCN(C/C=C/c3ccccc3)CC2)cc1C | inactive
O=C(Nc1ccc(OC(F)(F)F)cc1)c1noc2c1CCCC2 | inconclusive: 14.1 µM [activator, single point]
CCn1c(COc2ccccc2)nnc1SCC(=O)CC(=O)Nc1ccccc1OC | inactive
CC(C)c1ccc(/C=C/C(=O)n2nnc3ccccc32)cc1 | inconclusive: 20.6 µM [inhibitor, single point]
CCN(CC)S(=O)(=O)c1ccc(NC(=O)c2cccnc2Cl)c(NC(=O)c2cccnc2Cl)c1 | inconclusive: 35.5 µM [inhibitor, single point]
CN1C(=O)/C(=C\C=C2/CCCN2C)N(C)C1=S | inconclusive: 5.62 µM [activator, single point]
COC(=O)C(CC(=O)c1ccc(Cl)cc1)c1ccc(C(C)C)cc1 (stereo unspecified) | inconclusive: 8.91 µM [inhibitor, single point]
C/C(=N\O)C(=O)C(CN1CCCCC1)CN1CCCCC1 | inactive
C=CCNC(=S)N/N=C/c1ccc(-c2ccc(OC)cc2)o1 | active: 1.78 µM
O=C(OCCCCN1C(=O)c2ccccc2C1=O)c1ccc(Br)o1 | inconclusive: 29.1 µM [activator, single point]
O=C(NCCCN1CCOCC1)c1cnn2c(-c3ccccc3)cc(-c3ccccc3)nc12 | inconclusive: 22.4 µM [inhibitor, single point]
CCOC(=O)c1c(NC(=O)C2c3ccccc3Oc3ccccc32)sc(C(=O)N(CC)CC)c1C | inconclusive: 35.5 µM [inhibitor, single point]
C=C1C(=O)OC2CC(C)C3C=CC(=O)C3(C)C(O)C12 (stereo unspecified) | active: 1.26 µM
COC(=O)c1[nH]c2ccccc2c1NC(=O)C(C)N1CC(C)OC(C)C1 (stereo unspecified) | inconclusive: 4.47 µM [inhibitor, full curve, poor fit]
COc1ccc(-c2nc(N)nc(C)c2Oc2ccccc2Br)c(O)c1 | inconclusive: 25.1 µM [inhibitor, single point]
O=C(/C=C/Nc1ccccc1)c1ccc(Oc2ncccn2)cc1 | inconclusive: 2.51 µM [activator, partial curve, poor fit]
COc1ccc(CNc2nc3ccccc3n2C)c(OC)c1 | inactive
COC(=O)c1c(NC(=O)/C(C#N)=C/c2ccccc2)sc2c1C(C(=O)OC)CC2 (stereo unspecified) | inconclusive: 2.82 µM [activator, full curve]
CCc1ccccc1Nc1sc(C(=O)c2cccc(OC)c2)c(N)c1S(=O)(=O)c1ccccc1 | inconclusive: 0.794 µM [inhibitor, full curve, poor fit]
COc1ccc(-n2c(=S)[nH]c3cc(C(=O)Nc4ccccc4OC)ccc3c2=O)c(OC)c1 | active: 6.31 µM

Compound | Potency
CC(=O)Nc1ccc(OC(=O)c2ccco2)cc1 | inactive
CC(=O)Nc1cccc(/C(C)=N/NC(=S)NC(C)C)c1 | inconclusive: 12.6 µM [activator, partial curve, poor fit]
Cc1ccc(NC2CCCN(C(=O)CN3C(=O)CSC3=O)C2)cc1C (stereo unspecified) | inconclusive: 5.62 µM [activator, partial curve, poor fit]
COc1ccc(C2c3c(n(C)c4ccccc34)C(=O)N2CC(=O)Nc2cccc(Cl)c2C)cc1 (stereo unspecified) | inactive
CC(Oc1ccc(Cl)cc1Cl)c1ccnc2nc(N3CCOCC3)nn12 (stereo unspecified) | inactive
Cc1cccc(N2CCN(C(=O)c3c(C)nn(Cc4ccccc4Cl)c3C)CC2)c1C | inconclusive: 20 µM [inhibitor, partial curve, poor fit]
Cc1cccc(N2CCN(C(=O)c3cnc(N4CCCC4)nc3C)CC2)c1C | inconclusive: 5.01 µM [activator, partial curve]
CCCCC1(Cc2cccc([N+](=O)[O-])c2)C(=O)N(c2ccccc2)N(c2ccccc2)C1=O | inconclusive: 12.6 µM [inhibitor, partial curve]
Cc1ccc(N2CC(NC(=O)c3cccc(Cl)c3)CC2=O)cc1C (stereo unspecified) | inactive
Cc1onc(-c2ccccc2)c1C(=O)N(Cc1ccccn1)Cc1ccccn1 | inactive
COc1ccc(N(C(=O)c2ccc(C(C)(C)C)cc2)S(=O)(=O)c2ccc(Cl)cc2)cc1 | inconclusive: 10 µM [inhibitor, partial curve]
CCOc1ccc(OCc2cccc(C(=O)N3CCCCCC3)c2)cc1 | active: 3.55 µM
CCC1=C(c2ccc(C)cc2)S(=O)(=O)N=C1N1CCC(C(=O)NCc2ccc(N(C)C)cc2)CC1 | inactive
CCNc1nc(-c2cc3ccccc3o2)cs1 | inconclusive: 7.94 µM [inhibitor, partial curve, poor fit]
Cc1cc(NC(=O)c2ccccc2)ccc1NC(=O)Cc1ccccc1 | inactive
CCCCNC(=O)NC1C(NC(=O)NCCCC)N(C)C(=O)N1C (stereo unspecified) | inconclusive: 3.16 µM [inhibitor, single point]
O=S(=O)(Nc1cc(Sc2cccc3cccnc23)c(O)c2ccccc12)c1ccc(F)cc1 | active: 11.2 µM
CCOC(=O)c1c(C)oc2ncnc(Nc3cc(C)cc(C)c3)c12 | inactive
CCN1CCC(O)(/C=C/c2ccc(C)cc2)C(C(=O)/C=C/c2ccc(C)cc2)C1 (stereo unspecified) | inconclusive: 22.4 µM [inhibitor, single point]
CN(C(=S)Oc1ccc(C(=O)Nc2ccccc2)cc1)c1ccccc1 | inconclusive: 29.1 µM [inhibitor, single point]
COc1ccccc1NC(=O)c1ccc(NC(=O)CN2CCCC2)cc1 | inactive
CC1C(=O)N2CCCc3cc(S(=O)(=O)N4CCCCC4)cc1c32 (stereo unspecified) | inconclusive: 0.794 µM [activator, partial curve, poor fit]
C/C(CCc1ccccc1)=N\NC(=S)NCCc1ccccc1 | inconclusive: 1 µM [inhibitor, partial curve, poor fit]
CCCC(=O)NC(c1ccc(OC)c(OC)c1)c1c(O)ccc2ccccc12 (stereo unspecified) | inactive

Compound | Potency
Cc1ccc(S(=O)(=O)NC(C)C(=O)N2CCOCCOCCOCC2)cc1 (stereo unspecified) | inactive
COc1cccc(C(c2c(NC(=O)c3ccccc3)sc(C)c2C)N2CCN(C)CC2)c1 (stereo unspecified) | inconclusive: 35.5 µM [inhibitor, partial curve, poor fit]
COc1ccccc1Nc1nc2ccccc2[nH]1 | inconclusive: 1.26 µM [activator, partial curve, poor fit]
O=C(NC1=NCCS1)c1ccc(Cl)c(Cl)c1 | inconclusive: 35.5 µM [inhibitor, single point]
COc1ccc(S(=O)(=O)N2Cc3ccccc3CC2C(=O)Nc2ccc(C)cc2C)cc1OC (stereo unspecified) | inactive
Cc1ccc(Nc2ccc(-n3ccnc3)nn2)cc1C | inconclusive: 35.5 µM [activator, partial curve, poor fit]
Cc1ccc(NC(=O)Cn2nc(N3CCN(c4ccccc4)CC3)ccc2=O)cc1F | inactive
Cn1cc([C@@H]2C[C@H]3CN(Cc4cccc(Cl)c4)C(=O)[C@]34CCCN24)c(-c2ccccc2)n1 | inconclusive: 11.2 µM [inhibitor, partial curve, poor fit]
O=C(Nc1ccc(Cl)cc1)c1cc2c(cc1O)[nH]c1ccccc12 | inconclusive: 3.16 µM [inhibitor, partial curve, poor fit]
OC(COCc1ccccc1)CN1CCN(Cc2ccc3c(c2)OCO3)CC1 (stereo unspecified) | inactive
COc1ccc(/C=N/NC(=S)Nc2ccccc2)cc1 | inactive
O=C1c2cccc3cc(Br)cc(c23)C(=O)N1Nc1ccc(Br)cc1 | inactive
COc1cc(C2NC(=S)NC(C)=C2C(=O)OC(C)C)ccc1OC(C)C (stereo unspecified) | inactive
CCCCOc1ccc(Br)cc1/C(C)=N/NC1=NCCN1 | active: 11.2 µM
Cc1ccc(Cn2ccc(=O)c(Cc3c(Cl)cccc3Cl)c2C)cc1 | inactive
CC(=O)Nc1ccc(NC(=O)COC(=O)c2c(C)nn(-c3ccccc3)c2C)cc1 | inconclusive: 20.6 µM [inhibitor, partial curve]
CC(C)(C)c1ccc(OCc2ccc(C(=O)N/N=C/c3ccc([N+](=O)[O-])cc3)o2)cc1 | inconclusive: 20 µM [inhibitor, single point]
Cc1ccc(CC(=O)c2ccc(Cl)cc2)cc1 | inactive
COc1ccc(-n2nc([N+](=O)[O-])c(=NCCc3ccc(OC)c(OC)c3)n2O)cc1 | inconclusive: 14.1 µM [inhibitor, single point]
N/C(Cc1ccc([N+](=O)[O-])cc1)=N\OC(=O)COc1cccc2ccccc12 | inconclusive: 16.4 µM [inhibitor, single point]
Cc1ccc(C(=O)O/N=C2\CCCc3ccccc32)cc1 | inactive
CCCOC(=O)c1ccc(Oc2cn[nH]c2-c2ccc(OC)cc2O)cc1 | inconclusive: 11.2 µM [inhibitor, partial curve, poor fit]
COc1ccc2sc(N(CCCN(C)C)C(=O)c3ccc(S(=O)(=O)N4CCCc5ccccc54)cc3)nc2c1 | inconclusive: 35.5 µM [inhibitor, single point]

4 neighbouring records out of the list so far, for reference:
Compound | Potency
CC(=O)Nc1ccc(NC(=O)COC(=O)c2c(C)nn(-c3ccccc3)c2C)cc1 | inconclusive: 20.6 µM [inhibitor, partial curve]
CC(C)(C)c1ccc(OCc2ccc(C(=O)N/N=C/c3ccc([N+](=O)[O-])cc3)o2)cc1 | inconclusive: 20 µM [inhibitor, single point]
Cc1ccc(CC(=O)c2ccc(Cl)cc2)cc1 | inactive
COc1ccc(-n2nc([N+](=O)[O-])c(=NCCc3ccc(OC)c(OC)c3)n2O)cc1 | inconclusive: 14.1 µM [inhibitor, single point]
